Patent US20240309360A1, “TRANS-ACTIVATORS AND METHODS AND USE THEREOF” (THE GOVERNING COUNCIL OF THE UNIVERSITY OF TORONTO, priority 2021, published 2024)

Chains of the proteins cited; added tags and fusions are not shown. Lines headed by an entry give the natural chain unless they say otherwise; changes in a name come on top. A line that says so, or that is headed by a name, gives the form on record, which may keep a tag or linker. Residues count along the entry.
UniProt Q92793, residues 2-2442: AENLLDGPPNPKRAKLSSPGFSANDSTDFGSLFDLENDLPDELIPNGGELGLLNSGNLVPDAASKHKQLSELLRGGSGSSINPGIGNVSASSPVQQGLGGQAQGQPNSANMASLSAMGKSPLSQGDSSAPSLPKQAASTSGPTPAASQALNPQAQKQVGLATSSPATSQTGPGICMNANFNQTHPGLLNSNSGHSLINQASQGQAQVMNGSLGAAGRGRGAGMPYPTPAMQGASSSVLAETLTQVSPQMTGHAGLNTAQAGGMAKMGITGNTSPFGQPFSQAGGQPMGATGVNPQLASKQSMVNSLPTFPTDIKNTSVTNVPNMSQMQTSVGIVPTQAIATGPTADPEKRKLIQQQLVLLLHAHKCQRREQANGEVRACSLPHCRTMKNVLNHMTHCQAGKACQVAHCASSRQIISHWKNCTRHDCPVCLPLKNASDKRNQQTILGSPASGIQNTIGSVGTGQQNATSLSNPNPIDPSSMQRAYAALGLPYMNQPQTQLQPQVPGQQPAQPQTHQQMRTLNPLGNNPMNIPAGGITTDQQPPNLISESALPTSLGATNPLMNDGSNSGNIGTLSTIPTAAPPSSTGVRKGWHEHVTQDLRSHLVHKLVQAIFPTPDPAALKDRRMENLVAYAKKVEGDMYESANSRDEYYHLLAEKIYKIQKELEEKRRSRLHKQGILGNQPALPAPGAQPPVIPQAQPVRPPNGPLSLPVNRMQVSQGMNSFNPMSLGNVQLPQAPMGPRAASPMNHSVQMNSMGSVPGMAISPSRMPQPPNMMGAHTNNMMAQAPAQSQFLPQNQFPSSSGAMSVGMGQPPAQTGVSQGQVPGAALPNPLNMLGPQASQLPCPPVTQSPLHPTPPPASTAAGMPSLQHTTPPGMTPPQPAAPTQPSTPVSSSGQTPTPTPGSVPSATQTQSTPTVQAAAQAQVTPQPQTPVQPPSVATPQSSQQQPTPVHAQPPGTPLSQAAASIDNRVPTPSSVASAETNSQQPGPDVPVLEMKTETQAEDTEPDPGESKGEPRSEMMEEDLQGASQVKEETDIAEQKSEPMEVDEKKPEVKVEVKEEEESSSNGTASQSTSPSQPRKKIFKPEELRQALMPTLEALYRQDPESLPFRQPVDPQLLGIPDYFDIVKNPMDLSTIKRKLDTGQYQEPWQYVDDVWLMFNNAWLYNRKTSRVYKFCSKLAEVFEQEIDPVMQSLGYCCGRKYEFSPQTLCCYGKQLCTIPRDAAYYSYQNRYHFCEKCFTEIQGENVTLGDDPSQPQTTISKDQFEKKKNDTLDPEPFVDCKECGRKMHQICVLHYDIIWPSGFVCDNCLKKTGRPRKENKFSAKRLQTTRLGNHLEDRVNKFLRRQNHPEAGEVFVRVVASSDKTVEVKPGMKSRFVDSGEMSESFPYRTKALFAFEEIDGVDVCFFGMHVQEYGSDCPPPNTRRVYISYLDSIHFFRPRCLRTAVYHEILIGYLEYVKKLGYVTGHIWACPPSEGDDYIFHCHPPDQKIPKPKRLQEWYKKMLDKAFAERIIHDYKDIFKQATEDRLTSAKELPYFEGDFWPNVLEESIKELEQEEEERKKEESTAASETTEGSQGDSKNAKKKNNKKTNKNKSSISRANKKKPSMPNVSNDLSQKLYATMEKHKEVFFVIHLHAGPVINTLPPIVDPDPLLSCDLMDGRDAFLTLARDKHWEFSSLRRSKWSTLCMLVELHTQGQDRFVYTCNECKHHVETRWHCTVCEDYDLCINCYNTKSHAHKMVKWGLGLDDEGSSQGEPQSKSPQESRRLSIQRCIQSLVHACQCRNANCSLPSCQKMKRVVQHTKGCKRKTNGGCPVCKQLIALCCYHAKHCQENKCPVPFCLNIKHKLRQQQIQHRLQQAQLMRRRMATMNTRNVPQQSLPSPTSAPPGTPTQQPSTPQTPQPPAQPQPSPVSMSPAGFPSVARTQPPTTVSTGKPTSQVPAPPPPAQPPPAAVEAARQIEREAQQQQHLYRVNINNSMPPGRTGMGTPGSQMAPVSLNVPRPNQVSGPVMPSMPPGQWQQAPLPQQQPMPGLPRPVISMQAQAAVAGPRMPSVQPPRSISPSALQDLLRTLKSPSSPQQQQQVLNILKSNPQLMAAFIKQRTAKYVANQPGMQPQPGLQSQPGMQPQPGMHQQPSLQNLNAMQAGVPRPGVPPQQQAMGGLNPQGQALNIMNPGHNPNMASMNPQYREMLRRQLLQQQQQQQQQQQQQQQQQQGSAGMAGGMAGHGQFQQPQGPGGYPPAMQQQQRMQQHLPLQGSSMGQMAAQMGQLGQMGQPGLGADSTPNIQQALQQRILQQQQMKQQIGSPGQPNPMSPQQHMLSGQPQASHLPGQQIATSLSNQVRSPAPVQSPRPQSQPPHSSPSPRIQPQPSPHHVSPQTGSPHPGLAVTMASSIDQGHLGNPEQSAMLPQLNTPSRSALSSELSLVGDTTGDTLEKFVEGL
UniProt Q09472, residues 2-2414: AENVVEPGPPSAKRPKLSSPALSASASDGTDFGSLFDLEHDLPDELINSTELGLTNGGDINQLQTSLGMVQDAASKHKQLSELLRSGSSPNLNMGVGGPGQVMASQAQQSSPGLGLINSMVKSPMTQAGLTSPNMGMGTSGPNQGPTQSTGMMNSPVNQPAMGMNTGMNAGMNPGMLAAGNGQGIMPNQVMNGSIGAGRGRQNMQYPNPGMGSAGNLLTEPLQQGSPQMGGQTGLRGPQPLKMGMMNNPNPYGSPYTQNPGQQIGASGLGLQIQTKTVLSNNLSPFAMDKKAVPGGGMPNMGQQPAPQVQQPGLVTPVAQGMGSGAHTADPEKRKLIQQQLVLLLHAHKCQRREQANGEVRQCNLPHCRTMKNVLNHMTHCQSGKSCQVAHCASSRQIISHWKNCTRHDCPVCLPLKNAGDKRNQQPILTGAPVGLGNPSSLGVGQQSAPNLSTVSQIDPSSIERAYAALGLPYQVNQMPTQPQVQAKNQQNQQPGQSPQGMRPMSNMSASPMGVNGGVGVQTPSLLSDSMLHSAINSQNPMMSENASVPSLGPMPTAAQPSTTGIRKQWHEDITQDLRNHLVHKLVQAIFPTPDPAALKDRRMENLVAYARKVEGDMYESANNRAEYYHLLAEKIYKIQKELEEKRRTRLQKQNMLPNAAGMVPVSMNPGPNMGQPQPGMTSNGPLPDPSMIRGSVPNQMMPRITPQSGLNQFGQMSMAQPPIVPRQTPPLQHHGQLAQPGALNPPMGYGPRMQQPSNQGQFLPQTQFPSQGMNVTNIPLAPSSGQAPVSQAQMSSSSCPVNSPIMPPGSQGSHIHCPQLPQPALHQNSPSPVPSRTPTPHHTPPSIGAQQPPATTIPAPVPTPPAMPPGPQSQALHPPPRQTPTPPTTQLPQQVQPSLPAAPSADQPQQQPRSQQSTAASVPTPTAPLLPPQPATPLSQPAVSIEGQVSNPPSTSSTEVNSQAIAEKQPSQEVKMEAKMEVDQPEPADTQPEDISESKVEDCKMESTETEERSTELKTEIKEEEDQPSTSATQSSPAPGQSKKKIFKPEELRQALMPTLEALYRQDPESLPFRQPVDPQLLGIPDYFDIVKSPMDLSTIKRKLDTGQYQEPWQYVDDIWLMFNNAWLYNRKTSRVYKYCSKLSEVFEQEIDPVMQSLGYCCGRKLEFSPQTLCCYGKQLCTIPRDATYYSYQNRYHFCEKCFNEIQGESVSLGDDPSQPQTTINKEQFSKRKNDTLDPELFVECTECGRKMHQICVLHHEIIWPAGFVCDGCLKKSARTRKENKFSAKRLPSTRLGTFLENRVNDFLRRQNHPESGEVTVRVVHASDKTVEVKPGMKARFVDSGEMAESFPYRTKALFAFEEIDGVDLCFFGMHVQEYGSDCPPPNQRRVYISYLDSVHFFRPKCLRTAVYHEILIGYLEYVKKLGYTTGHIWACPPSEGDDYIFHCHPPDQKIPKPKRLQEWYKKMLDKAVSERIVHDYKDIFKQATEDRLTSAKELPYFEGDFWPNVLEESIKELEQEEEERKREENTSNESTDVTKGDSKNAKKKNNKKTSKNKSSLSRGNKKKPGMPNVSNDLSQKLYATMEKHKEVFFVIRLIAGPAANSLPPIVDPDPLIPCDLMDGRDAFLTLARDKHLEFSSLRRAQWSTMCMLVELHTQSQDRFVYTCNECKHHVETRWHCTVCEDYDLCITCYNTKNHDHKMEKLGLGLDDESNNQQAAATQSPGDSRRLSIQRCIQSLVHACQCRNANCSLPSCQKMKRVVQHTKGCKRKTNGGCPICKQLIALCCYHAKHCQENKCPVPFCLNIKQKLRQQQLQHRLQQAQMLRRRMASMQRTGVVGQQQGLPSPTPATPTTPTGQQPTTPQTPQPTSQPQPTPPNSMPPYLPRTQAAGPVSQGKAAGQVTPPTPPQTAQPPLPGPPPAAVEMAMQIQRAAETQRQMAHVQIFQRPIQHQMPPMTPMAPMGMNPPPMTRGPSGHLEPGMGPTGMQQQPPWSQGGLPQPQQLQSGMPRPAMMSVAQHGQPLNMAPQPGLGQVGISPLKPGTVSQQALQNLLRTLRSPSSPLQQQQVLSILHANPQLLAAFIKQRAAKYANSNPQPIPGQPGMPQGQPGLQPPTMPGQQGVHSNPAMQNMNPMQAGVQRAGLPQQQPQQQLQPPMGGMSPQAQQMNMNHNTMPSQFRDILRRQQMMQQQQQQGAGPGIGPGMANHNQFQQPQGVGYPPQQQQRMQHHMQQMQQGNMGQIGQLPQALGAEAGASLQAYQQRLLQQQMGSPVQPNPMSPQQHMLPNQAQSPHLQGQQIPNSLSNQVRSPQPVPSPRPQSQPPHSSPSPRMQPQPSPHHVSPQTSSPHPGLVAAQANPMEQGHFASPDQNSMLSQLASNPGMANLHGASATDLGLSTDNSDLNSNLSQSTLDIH
C10orf12 (Q96JN0, form named): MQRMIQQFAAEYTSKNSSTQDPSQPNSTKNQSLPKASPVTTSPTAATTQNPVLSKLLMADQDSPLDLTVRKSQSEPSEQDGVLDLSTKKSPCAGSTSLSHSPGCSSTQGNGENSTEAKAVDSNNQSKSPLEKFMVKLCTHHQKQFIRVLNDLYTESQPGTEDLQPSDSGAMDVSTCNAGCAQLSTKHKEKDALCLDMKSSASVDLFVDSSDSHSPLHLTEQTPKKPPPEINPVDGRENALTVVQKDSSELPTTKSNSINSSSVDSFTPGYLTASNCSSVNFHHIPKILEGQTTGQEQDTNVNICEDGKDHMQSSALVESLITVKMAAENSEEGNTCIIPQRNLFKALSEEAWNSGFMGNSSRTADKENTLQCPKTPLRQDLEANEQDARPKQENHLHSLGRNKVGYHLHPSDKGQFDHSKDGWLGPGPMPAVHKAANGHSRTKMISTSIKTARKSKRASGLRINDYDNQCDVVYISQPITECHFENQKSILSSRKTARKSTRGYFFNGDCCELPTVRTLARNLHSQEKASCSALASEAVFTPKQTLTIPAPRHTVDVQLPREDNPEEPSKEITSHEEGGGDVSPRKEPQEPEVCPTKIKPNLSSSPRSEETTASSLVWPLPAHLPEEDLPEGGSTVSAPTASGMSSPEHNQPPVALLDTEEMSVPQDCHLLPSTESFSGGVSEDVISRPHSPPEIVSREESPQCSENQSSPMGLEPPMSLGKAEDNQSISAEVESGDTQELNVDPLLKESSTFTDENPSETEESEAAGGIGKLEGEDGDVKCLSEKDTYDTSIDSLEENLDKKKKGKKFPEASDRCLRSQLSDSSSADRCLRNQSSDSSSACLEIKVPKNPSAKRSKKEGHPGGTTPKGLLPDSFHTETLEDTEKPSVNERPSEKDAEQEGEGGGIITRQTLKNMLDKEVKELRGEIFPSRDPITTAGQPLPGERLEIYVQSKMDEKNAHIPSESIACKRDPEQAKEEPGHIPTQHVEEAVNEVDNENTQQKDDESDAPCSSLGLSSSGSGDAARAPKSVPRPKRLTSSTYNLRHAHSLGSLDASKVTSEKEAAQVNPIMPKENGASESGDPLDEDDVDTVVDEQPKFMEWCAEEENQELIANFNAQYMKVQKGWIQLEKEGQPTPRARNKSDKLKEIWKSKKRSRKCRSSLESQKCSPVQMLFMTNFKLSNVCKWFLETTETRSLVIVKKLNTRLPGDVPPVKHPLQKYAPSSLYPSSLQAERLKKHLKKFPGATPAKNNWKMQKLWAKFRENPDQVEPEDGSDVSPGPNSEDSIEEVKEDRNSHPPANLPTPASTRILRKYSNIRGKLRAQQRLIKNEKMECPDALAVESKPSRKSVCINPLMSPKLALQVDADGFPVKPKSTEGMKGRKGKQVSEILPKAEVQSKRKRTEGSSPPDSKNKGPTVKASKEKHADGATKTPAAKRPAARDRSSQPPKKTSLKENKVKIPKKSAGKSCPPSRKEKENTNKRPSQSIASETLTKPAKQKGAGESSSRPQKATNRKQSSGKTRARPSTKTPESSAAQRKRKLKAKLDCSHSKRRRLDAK
UniProt Q6ZUJ4, residues 80-267: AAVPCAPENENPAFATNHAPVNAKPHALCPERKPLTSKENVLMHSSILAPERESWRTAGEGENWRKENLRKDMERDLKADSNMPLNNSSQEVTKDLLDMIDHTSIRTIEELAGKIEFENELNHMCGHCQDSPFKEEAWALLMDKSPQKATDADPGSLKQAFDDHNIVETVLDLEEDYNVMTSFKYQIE

How the values were obtained:
Assay in all cases: BioID2 proximity labelling, HEK293 cells
[1] = target: CBP (human) (UniProt Q92793)
[2] = target: p300 (human) (UniProt Q09472)
[3] = target: C10orf12 (human) (UniProt Q96JN0)

Row | Substance | binding [1] | binding [2] | binding [3]
1 | C-terminal fragment of C3orf62 fused to SRF (C3orf62-Cterm), tagged with BirA-FLAG (from UniProt Q6ZUJ4 80-267) | binds | binds | –
2 | SUZ12 tagged with BirA-FLAG (from UniProt Q15022 1-739) | – | – | binds

No constants are given. Whether binding was seen depends on the method and setting. Binding seen in cells or lysates may run through a third protein. A yes stands for co-enrichment or nearness to the bait. Other partners may have been found.
